Measured values published in PubChem BioAssay (NCATS).
The shares of active, inactive and inconclusive entries below differ from those in the screen. Potencies beside an inconclusive call are fits to weak or partial responses and may not hold up. Active and inactive are the calls of the source. Calls come from the whole dose curve; as a rule, active = well fitted inhibition curve with a large enough effect; inconclusive = small, poorly fitted or top-dose-only effect; inactive = no such curve, though single readings can be large or run the other way.

target: Phosphoglycerate kinase, glycosomal (Trypanosoma brucei brucei) (UniProt P07378); test: qHTS for inhibitors of Phosphogylcerate Kinase: Hit Validation Screen (AID 686980); conditions: TbPGK coupled GAPDH assay, Kinase-Glo luminescence; series mostly up to 57.5 µM; activity change, negative = inhibition: at the top concentration; for Potency: nearly all actives have a fitted effect of over 65% in size
Method in brief: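 Recombinant glycosomal PGK reaction used 1,3-bisphosphoglycerate generated in-well by GAPDH (100nM final) in 100mM TEA pH 7.6, 5mM MgCl2, 0.01% Tween-20. After 60 minutes at room temperature, ATP was read by Kinase-Glo Plus luminescence end-point.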
Potency is the fitted concentration of half-maximal effect.

Potency, inconclusive:
O=C(O)CSCC(=O)Nc1ccc(-c2nc3ccccc3s2)cc1 32.6 µM [inhibitor, single point]
O=C(/C=C/Nc1ccccc1Br)c1ccccn1 20.6 µM [inhibitor, partial curve]
Oc1ccc(C[C@H]2CNCCN2CCc2cccc3ccccc23)cc1 20.6 µM [inhibitor, partial curve]
CCCC[N+](C)(C)CCC(=O)NC(C)(C)CS(=O)(=O)[O-] 11.6 µM [inhibitor, partial curve]
N#CNc1nc(O)cc(=O)[nH]1 20.6 µM [inhibitor, partial curve]
C/C(=N/NC(=O)c1cc(O)c(O)c(O)c1)c1ccc([N+](=O)[O-])cc1 4.11 µM [inhibitor, full curve]
O=C(O)C1=C(C(=O)O)C2CCC1C2 18.3 µM [inhibitor, partial curve]
CN(C)c1ccc(/C=N/NC(=O)c2ccccn2)cc1 16.3 µM [inhibitor, partial curve]
Cc1ccc(-c2nc3ccccc3n2C)o1 8.19 µM [inhibitor, full curve]
C=C(C)C(=O)Nc1cccc(C2=NOC3(C2)C[C@@H](C(N)=O)N(C(=O)/C=C/CC)C3)c1 (some centres undefined) 2.91 µM [inhibitor, full curve]
O=c1oc2ccccc2cc1-c1cn2ccccc2n1 8.19 µM [inhibitor, partial curve]
O=C(COc1ccc2c(c1)OCO2)Nc1nccs1 8.19 µM [inhibitor, full curve]
Nc1nc(N2CCN(C(=O)c3ccco3)CC2)nc2ccc(Br)cc12 18.3 µM [inhibitor, partial curve]
Cc1cc(C(=O)NCc2ccc(C(=O)O)o2)c(C)o1 20.6 µM [inhibitor, partial curve, poor fit]
CCC(C)[C@H]1CNCCN1CCc1cccc2ccccc12 (some centres undefined) 20.6 µM [inhibitor, partial curve]
Cn1c(C(=O)NC2CCCCC2)cc2sccc21 18.3 µM [inhibitor, partial curve]
O=C(O)c1cc(N2C(=O)C=CC2=O)cc(N2C(=O)C=CC2=O)c1 13 µM [inhibitor, partial curve]
O=C(COC(=O)/C=C/c1ccco1)Nc1cc(S(=O)(=O)N2CCOCC2)ccc1Cl 29.1 µM [inhibitor, single point]
COc1cc(/C=N/Nc2nncn2/N=C/c2ccc(O)c(OC)c2)ccc1O 23.1 µM [inhibitor, partial curve]
C=C(C)C(=O)Nc1cccc(C2=NOC3(C2)C[C@H](C(N)=O)N(C(=O)c2ccccc2)C3)c1 (some centres undefined) 11.6 µM [inhibitor, partial curve]
c1ccn2cc(-c3ccc4c(c3)OCCO4)nc2c1 18.3 µM [inhibitor, partial curve]
Fc1cccc(CCN2CCNC[C@@H]2Cc2ccccc2)c1 32.6 µM [inhibitor, partial curve]

Random excerpt: three entries already listed.
Potency, inconclusive:
CN(C)c1ccc(/C=N/NC(=O)c2ccccn2)cc1 16.3 µM [inhibitor, partial curve]
Nc1nc(N2CCN(C(=O)c3ccco3)CC2)nc2ccc(Br)cc12 18.3 µM [inhibitor, partial curve]
CCC(C)[C@H]1CNCCN1CCc1cccc2ccccc12 (some centres undefined) 20.6 µM [inhibitor, partial curve]

Next part:

Potency, active:
Cc1ccsc1/C=C1\CCc2ccccc2C1=O 14.6 µM
Cc1[nH]cnc1C(=O)N/N=C/c1c(Cl)cccc1Cl 11.6 µM
Clc1ccccc1Nc1nnc(-c2ccncc2)s1 14.6 µM
Cn1c(N=Nc2ccccc2)nc2ccccc21 13 µM
COCCCn1c(Cc2csc(Nc3cccc(Cl)c3)n2)nnc1SCC(=O)OC1CCCCC1 9.19 µM
N/C(=N\OC(=O)c1ccc(Cl)cc1)c1ccccn1 14.6 µM
Cc1cc(NC(=O)CSc2cn(CCNC(=O)c3ccccc3)c3ccccc23)no1 1.16 µM
Fc1ccccc1Nc1nc2ccccc2o1 18.3 µM
O=C(Nc1ccccc1)Nc1ccc(C(=O)N2CCCC2)cc1 16.3 µM
O=C(O)c1cc(O)c2c(c1)[C@@H]([C@H]1c3cc(C(=O)O)cc(O)c3C(=O)c3c(O[C@@H]4O[C@H](CO)[C@@H](O)[C@H](O)[C@H]4O)cccc31)c1cccc(OC3O[C@H](CO)[C@@H](O)[C@H](O)[C@H]3O)c1C2=O (some centres undefined) 2.59 µM
Cc1ccc(NC(=O)CN2C(=O)S/C(=C\c3cc(Cl)c(OCC(=O)O)c(Cl)c3)C2=O)cc1 5.8 µM
CC(=O)c1cccc(OCC(=O)N(C)CC(=O)NCc2ccco2)c1 3.26 µM

Activity change, negative = inhibition, inactive:
Cc1ccc(/C=N/N2CCCCC2)o1 -0.436%
CCC(=O)N1c2ccccc2CC1C(=O)NCCCN1CCN(c2ccc(OC)cc2)CC1 (centres undefined) -0.919%
CC(C)=CCc1cc(-c2oc3cc(O)cc(O)c3c(=O)c2O)ccc1O -28.3%
CC(C)CCN1CCN(Cc2ccc3nsnc3c2)CC1CCO (centres undefined) -7.51%
COc1ccc(N=C2SC(C(N)=O)CC(=O)N2Cc2ccc3c(c2)OCO3)cc1 (centres undefined) -21.3%
